For series [1], the system named is hemoglobin. Briefly: electrochemical aptasensor (current response). The conditions noted are these: 0.2 ng/ml hemoglobin vs 50 pg/ml cTnI, negligible current change; 5'-NH2-C6H12; aptamer dissolved in 0.1 M Tris-HCl; [Fe(CN)6]3-/4- redox probe; assay salt, pH and temperature not stated; commercial protein; single-stranded DNA.
In series [2] the test system is myoglobin. Briefly: electrochemical aptasensor (current response). The note with it: 0.2 ng/ml myoglobin vs 50 pg/ml cTnI, negligible current change; 5'-NH2-C6H12; aptamer dissolved in 0.1 M Tris-HCl; [Fe(CN)6]3-/4- redox probe; assay salt, pH and temperature not stated; commercial protein; single-stranded DNA.

Construct, isoform or probe ends are uncertain for at least one entry. A negative result means that nothing was seen under these conditions.

Turning to “CGTGCAGTACGCCAACCTTTCTCATGCGCGCTGCCCCTCTTA [AcTnI (amino-modified cTnI aptamer)]”, the binding result in series [1] and in series [2] was “no binding” each time.
